Data taken from PubChem BioAssay (NCATS).
Some of the results follow. These are further read-outs of the screen, such as a control signal, another cell line or another target. No call is given for them. The list favours compounds with an active or inconclusive main result.

experiment: qHTS assay for small molecule agonists of retinoid X receptor alpha signaling (AID 588544); conditions: HEK293T RXRa-UAS-bla, beta-lactamase reporter, 18 h; 530 nm emission

SMILES | max response
C[Si]1(C)O[Si](C)(C)O[Si](C)(C)O[Si](C)(C)O1 | -6.19%
IC(I)I | -15.3%
Brc1ccc(Oc2ccc(Br)cc2)cc1 | -5.86%
O=[N+]([O-])c1cc(Cl)c(Cl)c(Cl)c1Cl | 24.1%
COC(=O)CCSCCC(=O)OC | 5.25%
CCN(Cc1c(F)cccc1Cl)c1c([N+](=O)[O-])cc(C(F)(F)F)cc1[N+](=O)[O-] | -1.55%
CCCCNC(=O)NS(=O)(=O)c1ccc(C)cc1 | 1.32%
CCCCCCCCOC(=O)c1cc(O)c(O)c(O)c1 | -14.5%
CCCCNS(=O)(=O)c1ccccc1 | -20.5%
CCCCCOC(=O)COc1cc(N2C(=O)C3=C(CCCC3)C2=O)c(F)cc1Cl | 7.62%
CC(O)CN(CCN(CC(C)O)CC(C)O)CC(C)O (centres undefined) | 18%
CCOC(=O)[C@H](C)Oc1ccc(Oc2nc3ccc(Cl)cc3o2)cc1 | 24.1%
CCCCCCCCCCCC[N+](C)(C)C | 52.2%
C=C(C)C(=O)OCCN(C)C | -17.1%

experiment: qHTS assay for small molecule antagonists of retinoid X receptor alpha signaling (AID 588546); conditions: HEK293T RXRa-UAS-bla, beta-lactamase ratio, antagonist mode; measured here: W530 green channel, cytotoxicity proxy;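 further: cells stimulated with 9-cis-retinoic acid as agonist; on the % scale 0 is the no-effect control and ±100 the full control effect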
Outline: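 Beta-lactamase reporter inhibition, read as CCF4 fluorescence ratio (ex 405, em 460/530 nm) after 2 h at RT. HEK293T UAS-bla cells, 2500/well, were stimulated with 9-cis-RA at 500 or 100 nM final alongside test compound for 18 h at 37 C.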

SMILES | max response
Oc1ccc(C(c2ccc(O)cc2)C(Cl)(Cl)Cl)cc1 | 2.96%
CC(C)CCCCCCc1ccc(O)cc1 | -45.2%
O=C(Nc1ccccc1)c1ccccc1O | -9.03%
CCN(Cc1c(F)cccc1Cl)c1c([N+](=O)[O-])cc(C(F)(F)F)cc1[N+](=O)[O-] | -15%
CCCCNC(=O)NS(=O)(=O)c1ccc(C)cc1 | -0.874%
